# These are yes or no findings as the source states them, for the method shown. Some binding calls cover weakened binding; strength is not graded here.
# Biological target: M2 protein of influenza A/WSN/33 (H1N1), wild type (Influenza A virus A/WSN/33 (H1N1)) (UniProt P05780)
# Assay: non-reducing SDS-PAGE and Western blot
substance,measurement,value
"M2 protein of influenza A/WSN/33 (H1N1), wild type (from UniProt P05780 1-97)",binding,binds

# — paper doi:10.1101/776864
